PubChem BioAssay AID1259425, University of Nebraska Medical Center, 2018

Aim: 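Compare each knockdown with KSR1 silencing using changes in marker transcripts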 (primary screen)
Cells: HCT116 human colon cancer cells
Reagents: siRNA pool against human genes, 50 nM siRNA
Measured: 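After 50 nM siRNA pool, branched-DNA assay measures six marker transcripts per well, minus blank, normalised to the geometric mean of two housekeeping transcripts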
Scale: BNIP3L mRNA: higher = more BNIP3L transcript after knockdown
In all, the deposit lists about 14,000 reagents; shown is a random part of them. Some reagents were tested in more than one well and are listed for each. Not all columns of the deposit are shown. Not stated in the record: the time to read-out.

For IL24, what was measured?
BNIP3L mRNA, set 1: 0.065

What is on record for NIT2?
BNIP3L mRNA, set 1: 0.0744

With MED13L, what was measured?
BNIP3L mRNA, set 1: 0.14

How did the screen score OR6A2?
BNIP3L mRNA, set 1: 0.166

For ZBTB20, what does the deposit list?
BNIP3L mRNA, set 1: 0.143

What did the screen give for AKR7A3?
BNIP3L mRNA, set 1: 0.0709

For PRRG1, what was measured?
BNIP3L mRNA, set 1: 0.0661

With EML4, how do the results read?
BNIP3L mRNA, set 1: 0.145

Which result is listed for MYRIP?
BNIP3L mRNA, set 1: 0.0496

What did the screen give for UBE4B?
BNIP3L mRNA, set 1: 0.054

How did the screen score AHSP?
BNIP3L mRNA, set 1: 0.156

Which result is listed for AHSP?
BNIP3L mRNA, set 1: 0.114

Which result is listed for G6PC3?
BNIP3L mRNA, set 1: 0.124

Which result is listed for CD3D?
BNIP3L mRNA, set 1: 0.048

For IGSF6, how do the results read?
BNIP3L mRNA, set 1: 0.098

With ANP32D, how do the results read?
BNIP3L mRNA, set 1: 0.0908

For PLPPR3, what does the deposit list?
BNIP3L mRNA, set 1: 0.0631

For MED15, how do the results read?
BNIP3L mRNA, set 1: 0.195

What is on record for LDAF1?
BNIP3L mRNA, set 1: 0.111

What did the screen give for AKT2?
BNIP3L mRNA, set 1: 0.183

With TAF10, how do the results read?
BNIP3L mRNA, set 1: 0.124

How did the screen score GLRA2?
BNIP3L mRNA, set 1: 0.0483

How did the screen score GNG13?
BNIP3L mRNA, set 1: 0.108

With CFB, what was measured?
BNIP3L mRNA, set 1: 0.115

With PKD1, what does the deposit list?
BNIP3L mRNA, set 1: 0.206

For SYNPO, what does the deposit list?
BNIP3L mRNA, set 1: 0.151

With KHDRBS3, what does the deposit list?
BNIP3L mRNA, set 1: 0.0833

With DEFB1, what was measured?
BNIP3L mRNA, set 1: 0.132

Individual results from the entries so far:
TAF10, BNIP3L mRNA, set 1 → 0.124
Under “BNIP3L mRNA, set 1”, OR6A2 has 0.166
